Data: PubChem BioAssay AID907 (National Center for Advancing Translational Sciences (NCATS), 2007)
The inconclusive results got no clear call from the source; some entries with a clear call stand among them for comparison. Potencies beside an inconclusive call are fits to weak or partial responses and may not hold up. Active and inactive are the calls of the source. Calls come from the whole dose curve; as a rule, active = well fitted activation curve with a large enough effect; inconclusive = small, poorly fitted or top-dose-only effect, or effect the other way; inactive = flat fitted curve, though single readings scatter.

Experiment: Confirmation Concentration-Response Assay for Cell signaling CRE-BLA (Fsk stim) - HEK293 CREB Luciferase
Conditions: HEK293 CRE-luc2P, NKH477 EC10 potentiation, luminescence, 4 h; activity, positive = activation: at 38.3 µM (top of the series)
Source text: NIH Molecular Libraries Screening Centers Network [MLSCN] NIH Chemical Genomics Center [NCGC] MLSCN Grant: 1X01MH079867-01 Assay Provider: Marshall W. Nirenberg, U.S. National Heart, Lung and Blood Institute CRE Luciferase Assay Overview Memories persist for different lengths of time, from seconds or minutes to a lifetime. There are two kinds of memory: short-term memory (STM) and long-term memory (LTM). STM lasts for minutes to hours, which maybe mediated by modifications of molecules involved in synaptic functions. LTM lasts for days or longer, and may be due to the formation of new synapses or restructuring of existing synapses. LTM, but not STM, requires gene transcription and synthesis of proteins. CREB (cyclic-AMP Responsive Element Binding Protein) is one of the candidates plays an important role for enhancement of some types of LTM. CREB, a family of transcription factors, regulates the transcription of genes containing cAMP Responsive Elements (CRE). CRE is a nucleotide sequence often found in the promoter regions of genes that are binding sites for CREB. Using a luciferase reporter-gene under control of cAMP responsive element, a cell-based assay [CRE-luc2P HEK293 developed by Promega] was used to measure forskolin-induced signaling. The selected compounds were measured for their ability to modulate positively the action of EC10 NKH 477, a water soluble forskolin, on reporter gene activity. Compounds were screened in a titration series in 1536-well format. Positive modulators were identified based on the AC50 values derived from the screening data.
NCGC Assay Protocol Summary 2500 cells/5uL in DEME with 1% FBS was dispensed into 1536-well plates and cells were cultured at 37 degrees Celsius overnight. Next day 23 nL of compounds or DMSO were delivered to each well using a pin tool, and 1uL of EC10 level of NKH 477, or EC100 level of IBMX, a PDE inhibitor, in the present of NKH 477, or assay medium was added. And then the plates were incubated at 37 degrees Celsius for 4 hours. 6 uL of Bright-Glo luciferase (Promega, WI) was added to each well. After incubated at room temperature for 10min the plates were measured for luminescence intensity on a ViewLux (Perkin Elmer) detector. Keywords: NIH Roadmap, MLSCN, MLSMR, qHTS, NCGC, CRE, luciferase, reporter-gene assay.

| SMILES | Potency | activity, positive = activation |
| --- | --- | --- |
| Nc1nc2ccc(Cl)cc2c2nc(-c3ccco3)nn12 | inconclusive: 15.8 µM [activator, partial curve, poor fit] | – |
| CN(C)C=C1C(=O)N(C2CCCCC2)C(=O)N(C2CCCCC2)C1=O | – | inconclusive: 47.8% [activator] |
| Cn1c(O)c(C=NCCOc2ccc(Cl)cc2)c(=O)n(C)c1=O | active: 12.6 µM | – |
| CC(C)C(=O)N1CCN(CCN=Cc2c(O)n(C)c(=O)n(C)c2=O)CC1 | inactive | – |
| COc1cc2c(c(OC)c1OC)-c1ccc(OC)c(=O)cc1[C@@H](NC(C)=O)CC2 | inconclusive: 5.01 µM [activator, partial curve, poor fit] | – |
